These are yes or no findings as the source states them, for the method shown. Binding seen in cells or lysates may run through a third protein. Some results given as binding are weak or reduced against the parent protein; the word gives no strength.
Key:
[1] = target: T1, Eukaryotic initiation factor 2B epsilon subunit (eIF2Bε), wild-type transgene (UniProt Q64350); experiment: co-IP; left ventricular tissue lysates (Pierce IP lysis buffer) pre-cleared with G-Sepharose, eIF2Bε monoclonal antibody 4 h at 4°C, Protein G-Sepharose 4 h at 4°C, washed 4-5 times, western blot; negative control without primary antibody
T1 sequence: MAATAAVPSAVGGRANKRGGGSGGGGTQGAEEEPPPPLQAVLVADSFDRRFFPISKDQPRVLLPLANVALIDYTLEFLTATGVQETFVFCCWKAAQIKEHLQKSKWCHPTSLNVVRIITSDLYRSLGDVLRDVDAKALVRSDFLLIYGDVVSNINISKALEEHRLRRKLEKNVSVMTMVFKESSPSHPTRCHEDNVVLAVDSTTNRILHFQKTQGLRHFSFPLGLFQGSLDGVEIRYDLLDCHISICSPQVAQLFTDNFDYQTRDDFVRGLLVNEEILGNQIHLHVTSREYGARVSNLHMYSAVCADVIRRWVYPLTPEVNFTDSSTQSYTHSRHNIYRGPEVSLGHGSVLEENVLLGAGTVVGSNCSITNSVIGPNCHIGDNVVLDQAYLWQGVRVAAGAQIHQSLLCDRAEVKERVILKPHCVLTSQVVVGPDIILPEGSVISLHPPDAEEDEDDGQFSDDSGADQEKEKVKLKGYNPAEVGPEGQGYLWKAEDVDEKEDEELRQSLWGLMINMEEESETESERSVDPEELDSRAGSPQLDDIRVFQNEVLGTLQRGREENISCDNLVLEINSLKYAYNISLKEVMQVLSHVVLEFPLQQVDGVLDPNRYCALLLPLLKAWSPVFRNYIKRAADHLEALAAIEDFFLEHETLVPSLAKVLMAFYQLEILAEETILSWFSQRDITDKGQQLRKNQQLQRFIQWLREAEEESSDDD

[2] = target: T2, eIF2Bε-S535A mutant transgene (UniProt Q64350); experiment: as above
T2 sequence: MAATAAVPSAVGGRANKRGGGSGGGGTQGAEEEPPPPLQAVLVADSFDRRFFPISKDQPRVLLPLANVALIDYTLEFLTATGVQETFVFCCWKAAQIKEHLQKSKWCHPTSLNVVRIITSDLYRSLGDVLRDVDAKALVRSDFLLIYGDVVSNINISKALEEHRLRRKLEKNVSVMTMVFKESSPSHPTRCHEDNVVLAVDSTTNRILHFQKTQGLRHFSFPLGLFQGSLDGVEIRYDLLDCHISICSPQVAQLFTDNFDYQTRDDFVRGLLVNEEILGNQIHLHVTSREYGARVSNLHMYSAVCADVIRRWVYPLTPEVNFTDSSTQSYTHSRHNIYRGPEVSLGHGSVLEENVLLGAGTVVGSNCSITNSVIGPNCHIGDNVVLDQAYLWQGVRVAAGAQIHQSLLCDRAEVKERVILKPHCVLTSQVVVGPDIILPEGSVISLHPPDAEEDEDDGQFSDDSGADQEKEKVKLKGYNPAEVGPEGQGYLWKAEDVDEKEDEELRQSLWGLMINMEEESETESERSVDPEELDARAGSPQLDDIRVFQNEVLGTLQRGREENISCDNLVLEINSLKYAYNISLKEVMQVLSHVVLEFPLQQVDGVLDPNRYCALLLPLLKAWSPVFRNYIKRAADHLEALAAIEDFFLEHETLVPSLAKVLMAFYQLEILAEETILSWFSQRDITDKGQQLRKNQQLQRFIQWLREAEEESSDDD

B1: Dual specificity tyrosine-phosphorylation-regulated kinase 2 (DYRK2) (enzyme, UniProt Q5U4C9 1-599)
chain: MLTRKPSAAAPAAYPTGRGGDTAVRQLQASPGIGAGAPRSGVGTGPPSPIALPPLRASNATTTAHTIGGSKHTMNDHLHLNSHGQIQVQQLFEDNSNKRTVLTTQPNGLTTVGKTGLPGVPERQLESIHRRQGSSTSLKSMEGMGKVKASPMTPEQAMKQYMQKLTAFEHHEIFSYPEIYFLGPNAKKRQGMTGGPNNGGYDDDQGSYVQVPHDHVAYRYEVLKVIGKGSFGQVVKAYDHKVHQHVALKMVRNEKRFHRQAAEEIRILEHLRKQDKDNTMNVIHMLENFTFRNHICMTFELLSMNLYELIKKNKFQGFSLPLVRKFAHSILQCLDALHKNRIIHCDLKPENILLKQQGRSSIKVIDFGSSCYEHQRVYTYIQSRFYRAPEVILGARYGMPIDMWSLGCILAELLTGYPLLPGEDEGDQLACMIELLGMPSQKLLDASKRAKNFVSSKGYPRYCTVTTLSDGSVVLNGGRSRRGKLRGPPESREWGNALKGCDDPLFLDFLKQCLEWDPAVRMTPGQALRHPWLRRRLPKPPTGEKTAVKRVTESTGAITSISKLPPPSSSASKLRTNLAQMTDANGNIQQRTVLPKLVS
binding [1]: binds
binding [2]: binds
